# This is one part of the list. Shown are side measurements of this screen, not its main read-out; they come without a call. The list favours compounds with an active or inconclusive main result. Words in brackets tell the shape of the fitted curve; partial curves, single points and poor fits give uncertain potencies.
# Assay: qHTS Assay to Find Inhibitors of Chronic Active B-Cell Receptor Signaling
# Details: ABC-DLBCL IkBa-CBG/CBR reporter, luminescence ratio (green luciferase fused to IkBa over red control in TMD8 lymphoma cells), 4 h
# In short: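 TMD8 ABC-DLBCL cells carrying doxycycline-inducible green luciferase fused to IkappaBalpha plus unfused red luciferase were exposed to compounds (up to 46 uM) for 4 hrs at 37C. Activity came from the overlap-corrected green/red luminescence ratio.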
# [1] = measured here: CBR red luminescence, cell number
# [2] = measured here: IkBa-CBG green luminescence
smiles,measurement,setting,value
CCCCNCC(O)(c1ccc(Cl)cc1)c1ccc(Cl)cc1,AC50,[1],"17.8 µM [falling, single point]"
O=C(NCCc1ccccc1)c1cccc(Br)c1,AC50,[1],"11.2 µM [falling, partial curve, poor fit]"
COC(=O)c1c(NC(=O)CN2CCC3(O)CCCCC3C2c2ccc(OC)cc2OC)sc(C)c1C (stereo not drawn),AC50,[1],"29.1 µM [falling, single point]"
CC1=C(C(=O)OCC2CCCO2)C(c2ccccc2OC(C)C)C2=C(CC(c3ccco3)CC2=O)N1 (stereo not drawn),AC50,[1],"6.51 µM [falling, partial curve, poor fit]"
COC(=O)Cc1ccc(NC(=S)NCc2ccccc2Cl)cc1,AC50,[1],"23.1 µM [rising, single point]"
CCC(=O)c1ccc(N2CCCCCC2)c(F)c1,AC50,[1],"23.1 µM [rising, single point]"
CCc1nnc(NC(=O)C2CCCN2C(=O)Nc2ccccc2OC)s1 (stereo not drawn),AC50,[1],"0.00651 µM [falling, full curve, poor fit]"
Cc1ccc(C2C=NN(c3ccccc3)C2=O)cc1 (stereo not drawn),AC50,[1],"8.91 µM [falling, partial curve]"
Cc1cccc(OCCn2c(=O)sc3ccccc32)c1,AC50,[1],"32.6 µM [rising, single point]"
CCOC(=O)C(NS(=O)(=O)c1ccc(C)cc1)(C(F)(F)F)P(=O)(OCC(C)C)OCC(C)C (stereo not drawn),AC50,[1],"18.4 µM [rising, partial curve, poor fit]"
O=C(Cc1n[nH]c(=O)c2ccccc12)OCC(=O)c1ccc2c(c1)OCCO2,AC50,[1],"12.6 µM [rising, partial curve]"
same,AC50,[2],"7.08 µM [falling, partial curve]"
Cc1cccc(NC(=O)COC(=O)c2ccccc2SCC(=O)N2CCCC2)c1,AC50,[1],"1.78 µM [rising, partial curve, poor fit]"
Cc1cc(C)c2cc(CN(CCN(C)C)C(=O)Nc3ccccc3Cl)c(=O)[nH]c2c1,AC50,[1],"35.5 µM [falling, single point]"
CCCNc1ccc(C(=O)OCC)cc1[N+](=O)[O-],AC50,[1],"7.08 µM [rising, partial curve]"
same,AC50,[2],"11.2 µM [falling, partial curve]"
CCOC(=O)c1cc2c(nc1N)CCCC2,AC50,[1],"35.5 µM [rising, single point]"
C/C(=N\NC(=O)CSc1nc2ccccc2c(=O)n1-c1ccccc1C)c1cccs1,AC50,[1],"29.1 µM [rising, single point]"
CCOc1ccc2c(C)cc(=O)oc2c1OCC,AC50,[1],"11.2 µM [rising, single point]"
O=c1[nH]c(N/N=C\c2ccc(F)cc2)nc2ccccc12,AC50,[1],"3.55 µM [falling, full curve]"
CCOC(=O)c1cc2sccc2n1CC(=O)Nc1ccc(OC)cc1,AC50,[1],"14.1 µM [rising, partial curve, poor fit]"
O=C(N/N=C/c1sc(N2CCOCC2)nc1-c1ccccc1)c1ccc(O)cc1,AC50,[1],"11.2 µM [falling, partial curve]"
O=C(CN1C(=O)c2cccc3cccc1c23)N1CCN(c2ccccc2)CC1,AC50,[1],"3.66 µM [falling, single point]"
COc1cccc(NC(C)=[N+](C)CCNS(=O)(=O)c2ccc(Cl)cc2)c1,AC50,[1],"0.355 µM [rising, full curve, poor fit]"
Cc1ccc2nc(SCc3nnc(-c4ccccc4[N+](=O)[O-])o3)c(C#N)cc2c1,AC50,[1],"2.51 µM [falling, partial curve]"
CCOC(=O)C(C)Oc1cccc2c(=O)n(CC(=O)NCc3ccc(F)cc3)ccc12 (stereo not drawn),AC50,[1],"3.98 µM [rising, full curve]"
same,AC50,[2],"5.62 µM [falling, partial curve]"
Cc1cccc(NS(=O)(=O)c2ccc(NC(=O)CN(c3cc([N+](=O)[O-])ccc3C)S(C)(=O)=O)cc2)c1,AC50,[1],"20.6 µM [falling, single point]"
O=C(Nc1ccc(Cl)cc1)N1CCCN(Cc2ccc(F)cc2)C1,AC50,[1],"3.66 µM [falling, partial curve, poor fit]"
CCN1C(=O)c2cccc3c(NC(=O)c4ccc(OC)c(OC)c4)ccc1c23,AC50,[1],"20.6 µM [rising, partial curve]"
same,AC50,[2],"23.1 µM [falling, partial curve, poor fit]"
Cc1ccc(N2C(=O)CC(n3nc(C)cc3C)C2=O)cc1 (stereo not drawn),AC50,[1],"29.1 µM [falling, single point]"
same,AC50,[2],"23.1 µM [rising, partial curve, poor fit]"
COC(=O)c1cc(C(=O)Nc2nnc(C3CC3)s2)cc([N+](=O)[O-])c1,AC50,[1],"4.61 µM [rising, full curve, poor fit]"
CCn1c(C(=O)N2CCC(C(=O)NCc3cccs3)CC2)cc2sccc21,AC50,[1],"0.0058 µM [rising, full curve, poor fit]"
COc1ccc(-c2noc(-c3ccc(Cl)cc3)n2)cc1,AC50,[1],"2.06 µM [rising, partial curve]"
CCCN(CC(=O)Nc1ccccc1OC)C(=O)c1ccc(COc2ccccc2)o1,AC50,[1],"23.1 µM [rising, partial curve, poor fit]"
CC1CCN(c2ccc3c(c2)S(=O)(=O)c2cccc(C(=O)NC4CCCCC4)c2C3=O)CC1,AC50,[1],"1.46 µM [falling, partial curve, poor fit]"
CC(=O)OCCCN1c2ccccc2Nc2nnc(-c3ccccc3)cc21,AC50,[1],"8.91 µM [falling, partial curve, poor fit]"
CCN1C(=O)[C@H]2[C@@H](c3ccc(-c4ccc(F)cc4)c(OC)c3)N[C@@](C)(C(=O)OC)[C@H]2C1=O,AC50,[1],"13 µM [falling, partial curve]"
O=C(/C=C/c1ccco1)Nc1cccc(-c2nc3ccccc3[nH]2)c1,AC50,[1],"15.8 µM [falling, partial curve]"
O=C(CSc1n[nH]c(=O)[nH]c1=O)Nc1ccc(SC(F)F)cc1,AC50,[1],"29.1 µM [rising, single point]"
Cn1cc(Cl)c(C(=O)OCC(=O)Nc2nc(-c3ccc(Br)cc3)cs2)n1,AC50,[1],"2.06 µM [rising, partial curve, poor fit]"
